Reference: the supplement of paper PMC3334620
Whole data set: some 33,000 sequences, median “E-score (-0.5 to 0.5)” near -0.0059, cut for the highest 2% near 0.26. Some of the results follow.

target: T1, Cin5 (UniProt P40917); assay: PBM E-score (8-mer binding enrichment) (E-score (-0.5 to 0.5)); higher = stronger / more preferred TF binding; conditions: protein concentration: 100 nM; construct: GST-full length
T1 sequence: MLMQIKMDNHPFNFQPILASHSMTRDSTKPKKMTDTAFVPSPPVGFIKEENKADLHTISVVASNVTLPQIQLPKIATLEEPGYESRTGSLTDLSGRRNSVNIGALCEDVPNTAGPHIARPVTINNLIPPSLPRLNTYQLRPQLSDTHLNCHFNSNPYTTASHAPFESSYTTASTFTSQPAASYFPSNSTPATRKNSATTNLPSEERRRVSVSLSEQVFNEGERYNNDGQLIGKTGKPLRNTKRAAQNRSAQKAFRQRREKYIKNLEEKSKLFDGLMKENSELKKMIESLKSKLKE
Experimental: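 Universal 'all 10-mer' protein binding microarrays (Agilent AMADID 015681) probed with GST-tagged S. cerevisiae TFs (full-length or DBD) made by in vitro transcription/translation (PURExpress), about 100-200 nM. Bound TF was detected with fluorescent anti-GST. Each ungapped 8-mer (which stands for itself and its reverse complement) is scored by the PBM enrichment score (E-score), a modified Wilcoxon-Mann-Whitney statistic from -0.5 to +0.5, computed with the Universal PBM Analysis Suite. Scale: above 0.35 generally sequence-specific binding.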

Row | Sequence | PBM E-score
1 | CTACAGTC | -0.147
2 | AGCCTTTA | -0.11
3 | GTGCGAAC | -0.146
4 | ATCGCGGA | -0.0167
5 | ACATAACG | 0.231
6 | CCTTTATA | -0.135
7 | CCCCGTGC | -0.0209
8 | ATTGCAGG | 0.0963
9 | TTTACAAA | 0.154
10 | AGATGGTG | -0.103
11 | ATTGAAAT | 0.212
12 | CCGGCGCG | -0.118
13 | ATCATCAG | 0.0722
14 | TATGTAAA | 0.286
15 | AGTATCAA | 0.192
16 | CCGCTTCG | -0.181
17 | CGGTTGGA | 0.0642
18 | AACAAGCA | 0.082
19 | CAACGCGA | 0.134
20 | ACCGCGCA | 0.151
21 | GAACGAGA | 0.0669
22 | GTTGGCCA | -0.135
23 | ACGGACGC | -0.0868
24 | AAACGTCA | -0.0418
25 | CCACTACG | -0.0976

An excerpt of these results, as comma-separated lines:
Row,Sequence,PBM E-score
3,GTGCGAAC,-0.146
9,TTTACAAA,0.154
21,GAACGAGA,0.0669
22,GTTGGCCA,-0.135

Next part:

Row | Sequence | PBM E-score
26 | GGTGGGCA | 0.0635
27 | GAGACAGA | 0.12
28 | ATTCGGTC | 0.0323
29 | CCACGACA | -0.134
30 | CAGGGAGG | -0.24
31 | ACGCTGGA | -0.0784
32 | CTGTTATC | 0.126
33 | CGTCAACC | -0.0455
34 | GATATTTA | 0.0135
35 | TAGTTGCA | 0.0553
36 | CGTGCGGC | -0.139
37 | CAGAAGCG | 0.027
38 | GTTTTAAA | 0.112
39 | GCGGGTGA | -0.0997
40 | GTGTCCAA | 0.0492
41 | GTAATTAC | 0.175
42 | ACCGTAGC | -0.159
43 | GCCGCAGC | -0.133
44 | ACCTCATG | -0.229
45 | GGAGAATA | 0.119
46 | CGAAGACC | 0.0315
47 | ATCCCCGG | -0.0984
48 | AGTCGCCA | -0.24
49 | CTCTTAAG | -0.14
50 | CTTTGAGC | -0.225

Row | Sequence | PBM E-score
51 | ATGCCCAT | -0.124
52 | ACTGCACA | -0.0465
53 | CATCGTCG | -0.143
54 | GGGAAGAA | -0.0894
55 | ACACAAGG | 0.0303
56 | ATAGGTCG | -0.0266
57 | ATCCTGCG | -0.149
58 | TCCTTCCA | -0.0598
59 | CATTATTC | 0.255
60 | GCACCCGC | 0.0654
61 | CTCACCGC | -0.0887
62 | AGGGTGAT | 0.0199
63 | CGAATCGC | -0.122
64 | AGACAGCT | -0.00306
65 | AGTTAATA | 0.217
66 | CATGACCG | -0.229
67 | CTTGAGAC | -0.158
68 | CACGAATG | 0.137
69 | ATAGGTAA | 0.195
70 | ACGCCTTC | -0.164
71 | AGACCTCT | -0.165
72 | ACTGCACT | 0.0754
73 | CGCAAAAC | 0.0682
74 | ACCGGCGT | -0.144
75 | TCGCTACA | -0.251

Row | Sequence | PBM E-score
76 | ATGAATGC | 0.167
77 | CTCATAAC | 0.0387
78 | ATGACAAT | 0.111
79 | CGCCTCTC | -0.34
80 | GAATGCTC | -0.106
81 | CAGGCTGA | 0.00323
82 | CCACCAAC | 0.097
83 | TAAAGACA | 0.037
84 | ACATGAAC | 0.0716
85 | ATCACAGG | -0.127
86 | TGCTCCAA | 0.096
87 | CCATAGGC | -0.154
88 | ACGAGCTG | 0.13
89 | CTTCTGAC | -0.166
90 | CAAGCGCA | 0.323
91 | AATTTCTG | 0.0556
92 | GAGCATAA | 0.237
93 | AAATTTAA | 0.17
94 | GTTCTGCA | 0.0289
95 | ATACGTAG | 0.116
96 | CCGTGCTA | -0.179
97 | ACTCAGCC | -0.108
98 | GTATTCAC | 0.12
99 | TCTCGTAA | 0.25
100 | CCCAGTCG | -0.0543

Row | Sequence | PBM E-score
101 | AAACGTAC | 0.0409
102 | ATGCTACG | 0.113
103 | ACATACGC | 0.0419
104 | GGCGTAAC | -0.178
105 | AAATACTT | 0.142
106 | ATGATACA | 0.231
107 | ACTGAATA | 0.165
108 | AACCCGCT | -0.0823
109 | AGAGACCA | -0.0194
110 | AACGACTA | 0.0792
111 | CTTAGGTA | 0.337
112 | TCCGGCAA | 0.042
113 | CGAGGTAA | -0.0352
114 | TGTAAGAA | 0.194
115 | CAATCACG | 0.0456
116 | AATAATGG | 0.226
117 | TAACTAGA | 0.306
118 | GGTAGATA | 0.163
119 | CGGTTATC | -0.0259
120 | ATAAACAG | 0.189
121 | CACACAAC | 0.123
122 | ACTGCCGA | 0.0325
123 | GCTACAGC | 0.00155
124 | GATTGGCC | -0.135
125 | AAACAGTT | 0.0979

Row | Sequence | PBM E-score
126 | GCCCCCCA | -0.466
127 | ACTTTTCT | 0.0353
128 | ATGCTGCA | -0.0271
129 | AAGACTCA | -0.275
130 | AGTTGCAA | 0.0466
131 | ACGCACTC | -0.0778
132 | AAACTTGA | 0.182
133 | AGTAGCAT | -0.0338
134 | AAGAGCCT | -0.193
135 | ATGCTAAG | 0.0394
136 | AACGTGTG | -0.144
137 | CTCCAATC | 0.00472
138 | GCCCAACC | 0.0496
139 | CAGACACG | -0.137
140 | ATATTGTC | 0.23
141 | TCTTAAGA | -0.0736
142 | AAATCGGG | 0.0762
143 | ATATCTAA | 0.206
144 | CTCGGAGA | -0.0921
145 | GTCAGATA | 0.0332
146 | ACGCTCAC | 0.0871
147 | CTGATTGC | 0.0534
148 | GATACAGC | 0.03
149 | GAACTACC | 0.0721
150 | AGAACAGC | -0.0429

A different layout for part of the listing above.
Row,Sequence,PBM E-score
130,AGTTGCAA,0.0466
131,ACGCACTC,-0.0778
132,AAACTTGA,0.182
133,AGTAGCAT,-0.0338
134,AAGAGCCT,-0.193
135,ATGCTAAG,0.0394
136,AACGTGTG,-0.144

Continuation:

Row | Sequence | PBM E-score
151 | ATCATAGC | 0.157
152 | GAACACGC | 0.036
153 | CTGCTGAC | 0.26
154 | CTAATCTA | 0.00395
155 | GTCCTAGA | -0.273
156 | TGACGTCA | 0.425
157 | AAACCATG | 0.0848
158 | ACCTTTCA | 0.0112
159 | GACGATCC | 0.0343
160 | ACGCGGCG | 0.0773
161 | CTATGGGA | -0.104
162 | AAGTGCCC | -0.0728
163 | AATCTCGC | 0.219
164 | AAGCACAA | 0.186
165 | CAGCATTA | 0.0754
166 | CTAGCCAG | -0.0706
167 | GGCTATAC | -0.0436
168 | AACTTTTG | 0.0961
169 | GATGTGGA | 0.164
170 | GAATCCGA | 0.0296
171 | AGGTGAAC | -0.15
172 | ACCTAACT | 0.0466
173 | CTTCGTAC | 0.0683
174 | ATCATTCC | 0.125
175 | GACCCCCA | -0.492

Row | Sequence | PBM E-score
176 | CCTCAACG | -0.265
177 | CTACAAAC | 0.043
178 | ATGTTCGG | 0.112
179 | ACGTGATC | 0.137
180 | CAAACATA | 0.097
181 | CTATACTA | 0.198
182 | AGACCAAA | -0.0639
183 | AAGGAGAG | -0.317
184 | GCAATTAA | 0.139
185 | AAGGACTC | -0.187
186 | AAACGTAG | 0.0276
187 | AACAGTTG | 0.0695
188 | ACCCGCCT | -0.184
189 | ATTAGCGC | 0.172
190 | ATCCACTC | 0.198
191 | TCGAGCCA | -0.153
192 | CTCCAGTC | -0.113
193 | CGGAAACG | 0.0591
194 | AGTGAGGG | -0.107
195 | ACCTTTTG | -0.103
196 | ACGGCATA | 0.143
197 | GCTATCAC | -0.00053
198 | GTACGCGA | 0.0137
199 | TGGCCACA | -0.00341
200 | ACAAATTG | 0.248

Reprinted at random: three entries already listed, in no set order.
Row | Sequence | PBM E-score
187 | AACAGTTG | 0.0695
186 | AAACGTAG | 0.0276
180 | CAAACATA | 0.097

Going on with the list:

Row | Sequence | PBM E-score
201 | CCTGGTTA | -0.0485
202 | ATATCCGG | 0.066
203 | TCTCAGCA | -0.182
204 | TATTCGGA | 0.145
205 | GAACCGGA | 0.0972
206 | TGGGCGAA | -0.0541
207 | CGACCGAC | -0.028
208 | AGGATGCA | -0.0504
209 | AGTAATCA | 0.312
210 | ATCCGTTA | 0.29
211 | CAAAGACA | 0.0671
212 | ACGTCCTA | 0.0685
213 | GAACGCAC | 0.0283
214 | CCACTCGC | -0.119
215 | CAGTCGGG | -0.107
216 | TACGCACA | 0.0166
217 | CGCTGGGC | -0.295
218 | ACAAATAA | 0.204
219 | CGATCGCA | 0.0985
